These are yes or no findings as the source states them, for the method shown. In cells and extracts the contact can be indirect. Some binding calls cover weakened binding; strength is not graded here.
Target: ITCH (human (endogenous in primary ectopic endometrial stromal cells)) (UniProt Q96J02)
Experiment: co-IP; lysates of ectopic ESCs in RIPA lysis buffer, incubated with anti-ITCH, anti-ITGB3 or control IgG overnight at 4 °C, protein A/G Plus agarose beads 2 h at 4 °C, washed three times in lysis buffer, Western blot

By UniProt entry, the sequences of proteins in these tests, tags left out. Residues count along the entry.
UniProt Q96J02: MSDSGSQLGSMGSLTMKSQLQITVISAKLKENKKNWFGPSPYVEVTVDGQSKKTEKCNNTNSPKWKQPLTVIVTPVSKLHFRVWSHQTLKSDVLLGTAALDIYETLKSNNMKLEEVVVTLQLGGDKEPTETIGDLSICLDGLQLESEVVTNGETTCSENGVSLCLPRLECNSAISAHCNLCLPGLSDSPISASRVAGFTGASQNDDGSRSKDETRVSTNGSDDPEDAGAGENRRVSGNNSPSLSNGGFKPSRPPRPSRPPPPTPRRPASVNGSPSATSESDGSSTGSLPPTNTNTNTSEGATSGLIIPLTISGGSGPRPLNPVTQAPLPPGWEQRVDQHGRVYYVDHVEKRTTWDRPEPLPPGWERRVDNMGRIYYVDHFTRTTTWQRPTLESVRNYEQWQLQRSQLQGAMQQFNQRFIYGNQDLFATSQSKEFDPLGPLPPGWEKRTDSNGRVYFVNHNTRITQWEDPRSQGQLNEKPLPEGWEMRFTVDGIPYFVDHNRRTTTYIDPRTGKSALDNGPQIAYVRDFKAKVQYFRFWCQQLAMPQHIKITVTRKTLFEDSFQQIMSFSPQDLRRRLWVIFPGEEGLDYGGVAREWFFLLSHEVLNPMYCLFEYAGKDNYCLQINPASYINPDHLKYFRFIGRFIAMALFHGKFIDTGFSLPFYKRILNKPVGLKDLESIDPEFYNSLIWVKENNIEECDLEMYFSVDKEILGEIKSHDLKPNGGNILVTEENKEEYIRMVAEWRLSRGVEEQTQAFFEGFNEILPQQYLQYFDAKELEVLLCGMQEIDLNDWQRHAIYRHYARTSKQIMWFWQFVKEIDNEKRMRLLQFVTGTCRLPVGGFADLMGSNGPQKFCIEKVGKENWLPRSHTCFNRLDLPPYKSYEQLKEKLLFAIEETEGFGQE
UniProt P05106, residues 27-788: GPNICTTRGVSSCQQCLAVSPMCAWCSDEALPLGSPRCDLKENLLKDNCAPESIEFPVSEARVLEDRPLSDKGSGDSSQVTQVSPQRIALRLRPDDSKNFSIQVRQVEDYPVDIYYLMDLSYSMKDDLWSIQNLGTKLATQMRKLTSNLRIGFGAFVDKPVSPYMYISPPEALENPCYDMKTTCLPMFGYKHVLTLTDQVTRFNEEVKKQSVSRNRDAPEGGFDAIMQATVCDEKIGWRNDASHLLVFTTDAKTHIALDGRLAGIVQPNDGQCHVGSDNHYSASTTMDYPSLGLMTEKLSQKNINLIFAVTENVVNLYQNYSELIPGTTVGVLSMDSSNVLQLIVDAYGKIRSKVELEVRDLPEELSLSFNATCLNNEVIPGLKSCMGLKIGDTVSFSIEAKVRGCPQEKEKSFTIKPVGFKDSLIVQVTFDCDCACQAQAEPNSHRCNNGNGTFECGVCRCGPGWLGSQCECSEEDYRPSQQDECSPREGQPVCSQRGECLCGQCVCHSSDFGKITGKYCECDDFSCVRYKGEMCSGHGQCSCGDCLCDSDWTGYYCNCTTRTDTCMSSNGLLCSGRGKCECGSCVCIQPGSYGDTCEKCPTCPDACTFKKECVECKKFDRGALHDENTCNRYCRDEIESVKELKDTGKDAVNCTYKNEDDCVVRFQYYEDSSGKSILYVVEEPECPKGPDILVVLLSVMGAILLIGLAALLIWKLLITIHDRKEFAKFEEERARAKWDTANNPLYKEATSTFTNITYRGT

Question: Which binding does the source give for “Integrin β3 (ITGB3) (from UniProt P05106 27-788) (receptor)” here?
Answer: Its binding is “binds”.

Source: article PMC10526369
